In US20070116784A1, “Imatinib combinations for head and neck cancers” (priority 2003, published 2007):

What was measured:
[1] = tested on: c-kit over-expressing cell line A549; assay: cells; conditions: Homo sapiens
HN1 ACC primary culture = assay: cells; format: cell-based; conditions: Homo sapiens
Cal27 = assay: Growth inhibition assay (SRB); format: cell-based; conditions: Homo sapiens, CAL-27
[2] = tested on: c-kit over-expressing cell line A549; conditions: A549 treated in the presence of steel factor (c-kit ligand), compared with 15 μM without
[3] = tested on: cell lines and ACC primary cultures; assay: cells; conditions: Homo sapiens
HN5 ACC primary culture = assay: Growth inhibition assay (SRB); format: cell-based; conditions: Homo sapiens
FaDu = assay: Growth inhibition assay (SRB); format: cell-based; conditions: Homo sapiens
DOK = assay: Growth inhibition assay (SRB); format: cell-based
HN3 ACC primary culture = assay: cells; format: cell-based; conditions: Homo sapiens

Cc1ccc(NC(=O)c2ccc(CN3CCN(C)CC3)cc2)cc1Nc1nccc(-c2cccnc2)n1 [Compound I]
IC50 [1]: 15 µM | IC50 (HN1 ACC primary culture): 33.2 µM | IC50 (Cal27): 18.1 µM | IC50 in the presence of steel factor [2]: un-altered | IC50 [3]: 17 to 33 µM | IC50 (HN5 ACC primary culture): 16.9 µM | IC50 (FaDu): 33.7 µM | IC50 (DOK): 30.1 µM | IC50 (HN3 ACC primary culture): 27.1 µM
